Laboratory results published in PubChem BioAssay AID2685 (National Center for Advancing Translational Sciences (NCATS), 2010).
Some of the results follow. These are further read-outs of the screen, such as a control signal, another cell line or another target. No call is given for them. Most of these compounds were active or inconclusive in the main read-out, so they are no random draw. Potencies come from curve fits of mixed quality, noted in brackets.

Test: qHTS Assay for Lipid Storage Modulators in Drosophila S3 Cells;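 for cell number change: cells counted by Cell Tracker Red CMTPX staining in the red channel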
Conditions: BODIPY lipid droplet fluorescence, 18-24 h; for cell number change: measured here: cell count max response, cells fed with added oleic acid
Method in brief: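 Drosophila S3 cells got compounds at several concentrations plus oleic acid (400 uM solution). Laser-scanning cytometry with 488 nm excitation read lipid droplets at 500-530 nm and cells at 575-640 nm. Percent activity was relative to 20 uM Triacsin C.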

[1] = measured here: cell number channel AC50, cells fed with added oleic acid
[2] = measured here: lipid fluorescence (Fed channel) AC50, cells fed with added oleic acid

COc1ccc(C(=O)N(CN2CCCC2=O)c2ccccc2OC)cc1OC
AC50 [1]: 4.11 µM [rising, partial curve, poor fit]

Cc1ccc(NC(=O)C(C)NS(=O)(=O)c2ccc(F)cc2)cc1C (centres undefined)
cell number change: 51.6%

O=C(CSc1nnc(Nc2ccccc2)s1)NC1CC1
cell number change: -4.01%
AC50 [2]: 23.1 µM [rising, single point]

CN(C(=O)c1ccc2nc(N)sc2c1)c1ccccc1
cell number change: 13%
AC50 [2]: 6.51 µM [rising, single point]

CNC(=S)N/N=C/c1ccc(N2CCOCC2)s1
cell number change: 51.6%
AC50 [1]: 29.1 µM [rising, single point]
AC50 [2]: 6.51 µM [falling, single point]

CSc1sc2ccccc2[n+]1CCCS(=O)(=O)[O-]
cell number change: -5.13%
AC50 [1]: 0.92 µM [falling, full curve, poor fit]
AC50 [2]: 0.651 µM [falling, full curve]

O=C(CSc1nc2ccccc2o1)NCCOc1ccccc1
cell number change: -15.7%
AC50 [1]: 4.61 µM [falling, single point]
AC50 [2]: 18.4 µM [falling, partial curve]

Cc1ccccc1OCC(=O)Nc1ccc(NC(=O)c2ccco2)cc1
cell number change: 4.77%
AC50 [2]: 0.0058 µM [rising, full curve, poor fit]

COC(=O)c1c(F)c(F)c(NCCO)c(F)c1F
cell number change: -2.17%
AC50 [2]: 0.326 µM [rising, full curve, poor fit]

CCOC(=O)c1ccc(S(=O)(=O)N2CCC(N3CCCCC3)CC2)cc1
cell number change: 6.63%
AC50 [2]: 14.6 µM [falling, partial curve, poor fit]

O=C1N(Cc2cccc(Cl)c2)C[C@@H]2C[C@@H](c3ccc4nonc4c3)N3CCC[C@@]123
cell number change: -34.4%
AC50 [1]: 14.6 µM [falling, partial curve]
AC50 [2]: 6.51 µM [falling, partial curve]

COc1ccc(CN(C)CC(=O)Nc2cc3oc4ccccc4c3cc2OC)c(OC)c1
cell number change: -7.37%
AC50 [2]: 0.731 µM [rising, single point]

O=C(/C=C/c1ccc(Cl)cc1Cl)NCc1ccncc1
cell number change: -6.47%
AC50 [2]: 0.58 µM [rising, single point]

CC1=CC=CC2=NC(=O)CC(C)(C(=O)N(CC(=O)NC(C)C)C3CCCC3)N12 (centres undefined)
cell number change: -34.6%
AC50 [1]: 11.6 µM [falling, partial curve, poor fit]
AC50 [2]: 29.1 µM [falling, single point]

Cc1ccc(-n2nc3c(=O)n(C(C)C(=O)NCCc4cccs4)nc(C)c3c2C)cc1 (centres undefined)
cell number change: -19.4%

CC(=O)O[C@]1(C(C)=O)CC[C@H]2[C@@H]3C=C(Cl)C4=CC(=O)[C@@H]5C[C@@H]5[C@]4(C)[C@H]3CC[C@@]21C
cell number change: -38.8%
AC50 [1]: 29.1 µM [falling, single point]
